Source: the supplement of paper PMC10849652
This is one part of the list.

Sequences of proteins named here, by UniProt entry; tags and fusion partners are left off. A change or cut given only in a name is not applied to a line headed by its entry.
UniProt Q96FQ6: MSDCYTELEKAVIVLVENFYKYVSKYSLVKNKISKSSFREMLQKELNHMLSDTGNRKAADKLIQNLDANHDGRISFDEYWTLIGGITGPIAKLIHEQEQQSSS
UniProt O95197: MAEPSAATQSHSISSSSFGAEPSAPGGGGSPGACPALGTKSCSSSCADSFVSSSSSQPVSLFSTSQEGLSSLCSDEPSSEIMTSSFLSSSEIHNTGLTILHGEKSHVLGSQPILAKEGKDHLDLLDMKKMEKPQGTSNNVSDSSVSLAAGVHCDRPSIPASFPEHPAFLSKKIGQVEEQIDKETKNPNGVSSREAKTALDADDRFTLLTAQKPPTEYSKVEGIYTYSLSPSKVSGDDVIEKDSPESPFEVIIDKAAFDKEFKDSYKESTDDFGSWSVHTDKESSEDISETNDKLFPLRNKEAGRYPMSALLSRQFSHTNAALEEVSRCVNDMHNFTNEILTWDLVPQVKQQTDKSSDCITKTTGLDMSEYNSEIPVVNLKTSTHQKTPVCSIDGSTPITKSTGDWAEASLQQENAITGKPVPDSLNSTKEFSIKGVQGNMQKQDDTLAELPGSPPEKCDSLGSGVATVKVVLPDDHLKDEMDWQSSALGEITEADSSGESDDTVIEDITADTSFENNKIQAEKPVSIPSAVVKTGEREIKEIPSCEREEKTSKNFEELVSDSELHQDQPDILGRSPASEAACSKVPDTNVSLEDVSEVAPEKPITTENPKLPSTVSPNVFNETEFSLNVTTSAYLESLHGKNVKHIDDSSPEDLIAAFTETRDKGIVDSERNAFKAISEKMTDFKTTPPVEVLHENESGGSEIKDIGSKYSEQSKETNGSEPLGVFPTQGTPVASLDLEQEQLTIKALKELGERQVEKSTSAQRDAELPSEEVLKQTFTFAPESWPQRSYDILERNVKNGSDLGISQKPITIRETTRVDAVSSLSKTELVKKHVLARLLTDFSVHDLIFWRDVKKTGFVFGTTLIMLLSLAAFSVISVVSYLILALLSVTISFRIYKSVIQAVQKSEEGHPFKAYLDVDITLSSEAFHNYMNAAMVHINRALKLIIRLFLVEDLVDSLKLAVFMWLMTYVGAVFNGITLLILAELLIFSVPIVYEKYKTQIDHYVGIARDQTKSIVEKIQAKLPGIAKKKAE
UniProt P23921: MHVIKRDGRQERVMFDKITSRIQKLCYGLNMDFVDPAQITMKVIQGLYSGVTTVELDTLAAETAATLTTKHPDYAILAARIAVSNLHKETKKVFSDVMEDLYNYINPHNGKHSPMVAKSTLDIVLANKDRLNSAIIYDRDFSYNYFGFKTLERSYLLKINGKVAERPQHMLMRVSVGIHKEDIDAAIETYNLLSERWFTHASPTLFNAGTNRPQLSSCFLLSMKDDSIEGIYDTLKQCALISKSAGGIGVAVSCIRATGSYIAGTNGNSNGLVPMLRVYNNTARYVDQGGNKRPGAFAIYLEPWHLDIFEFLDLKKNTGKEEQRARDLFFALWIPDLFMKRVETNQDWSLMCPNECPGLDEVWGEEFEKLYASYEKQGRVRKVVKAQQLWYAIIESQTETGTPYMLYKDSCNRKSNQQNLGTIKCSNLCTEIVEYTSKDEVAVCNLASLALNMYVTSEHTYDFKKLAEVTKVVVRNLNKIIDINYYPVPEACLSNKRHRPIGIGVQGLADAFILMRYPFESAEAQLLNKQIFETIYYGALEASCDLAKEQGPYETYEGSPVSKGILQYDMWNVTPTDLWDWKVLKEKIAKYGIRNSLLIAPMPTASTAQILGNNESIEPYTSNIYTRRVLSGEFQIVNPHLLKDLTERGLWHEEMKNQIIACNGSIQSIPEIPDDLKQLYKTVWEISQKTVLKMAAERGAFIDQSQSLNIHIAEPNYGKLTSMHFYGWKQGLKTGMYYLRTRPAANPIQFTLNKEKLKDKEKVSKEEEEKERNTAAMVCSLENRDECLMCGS
UniProt Q9Y3A4: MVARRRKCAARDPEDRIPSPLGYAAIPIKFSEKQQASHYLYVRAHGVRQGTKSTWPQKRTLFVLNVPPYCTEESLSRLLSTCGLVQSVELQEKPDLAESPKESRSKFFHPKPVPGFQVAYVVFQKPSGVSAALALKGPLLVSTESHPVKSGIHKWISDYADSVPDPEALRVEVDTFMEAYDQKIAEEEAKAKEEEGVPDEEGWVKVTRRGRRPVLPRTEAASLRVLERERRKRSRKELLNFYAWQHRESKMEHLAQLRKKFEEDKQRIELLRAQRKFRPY
UniProt Q9HA92: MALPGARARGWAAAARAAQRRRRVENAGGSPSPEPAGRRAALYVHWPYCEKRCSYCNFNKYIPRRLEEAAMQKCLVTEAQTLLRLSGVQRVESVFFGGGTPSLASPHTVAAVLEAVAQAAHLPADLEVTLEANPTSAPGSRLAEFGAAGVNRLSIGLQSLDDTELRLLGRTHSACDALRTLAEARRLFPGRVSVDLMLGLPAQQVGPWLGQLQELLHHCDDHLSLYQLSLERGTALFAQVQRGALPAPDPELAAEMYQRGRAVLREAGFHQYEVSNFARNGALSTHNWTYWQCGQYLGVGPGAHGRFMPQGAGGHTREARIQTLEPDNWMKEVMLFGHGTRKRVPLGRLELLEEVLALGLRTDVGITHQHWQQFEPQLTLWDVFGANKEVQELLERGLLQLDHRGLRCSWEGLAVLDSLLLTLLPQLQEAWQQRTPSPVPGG
UniProt O95059: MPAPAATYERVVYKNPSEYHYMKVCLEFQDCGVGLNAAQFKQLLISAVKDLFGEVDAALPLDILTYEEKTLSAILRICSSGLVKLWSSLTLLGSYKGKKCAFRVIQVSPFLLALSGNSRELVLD
UniProt Q92681: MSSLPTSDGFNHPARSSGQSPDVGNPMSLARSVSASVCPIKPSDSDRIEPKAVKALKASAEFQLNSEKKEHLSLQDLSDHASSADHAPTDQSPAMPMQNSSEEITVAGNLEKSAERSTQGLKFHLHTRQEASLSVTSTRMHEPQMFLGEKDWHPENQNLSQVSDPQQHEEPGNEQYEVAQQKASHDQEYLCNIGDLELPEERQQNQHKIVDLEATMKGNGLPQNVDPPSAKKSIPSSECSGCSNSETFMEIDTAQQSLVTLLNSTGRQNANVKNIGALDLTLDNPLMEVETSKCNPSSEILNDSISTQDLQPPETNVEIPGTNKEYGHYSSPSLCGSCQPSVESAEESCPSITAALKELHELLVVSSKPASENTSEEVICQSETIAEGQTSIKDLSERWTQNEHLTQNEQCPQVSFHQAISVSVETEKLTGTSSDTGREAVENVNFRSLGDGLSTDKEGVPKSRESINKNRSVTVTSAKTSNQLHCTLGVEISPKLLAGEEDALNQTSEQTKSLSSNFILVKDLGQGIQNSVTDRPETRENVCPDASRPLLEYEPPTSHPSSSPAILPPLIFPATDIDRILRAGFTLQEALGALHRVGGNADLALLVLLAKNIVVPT
UniProt Q7L3V2: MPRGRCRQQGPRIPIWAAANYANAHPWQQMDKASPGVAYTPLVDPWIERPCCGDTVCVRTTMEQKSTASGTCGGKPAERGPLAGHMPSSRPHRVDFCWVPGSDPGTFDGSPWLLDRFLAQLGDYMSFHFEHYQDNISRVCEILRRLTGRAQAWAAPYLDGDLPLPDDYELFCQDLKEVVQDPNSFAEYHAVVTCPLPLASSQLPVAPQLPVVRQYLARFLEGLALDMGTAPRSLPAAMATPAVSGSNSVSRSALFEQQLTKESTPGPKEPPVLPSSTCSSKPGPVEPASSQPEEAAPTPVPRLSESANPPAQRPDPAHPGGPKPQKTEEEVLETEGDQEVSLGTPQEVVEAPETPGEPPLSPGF
UniProt Q86WX3: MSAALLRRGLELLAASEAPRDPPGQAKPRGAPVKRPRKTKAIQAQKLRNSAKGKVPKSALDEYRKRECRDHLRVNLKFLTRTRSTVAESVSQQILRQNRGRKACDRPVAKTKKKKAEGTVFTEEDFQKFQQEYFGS
UniProt Q9Y2B1: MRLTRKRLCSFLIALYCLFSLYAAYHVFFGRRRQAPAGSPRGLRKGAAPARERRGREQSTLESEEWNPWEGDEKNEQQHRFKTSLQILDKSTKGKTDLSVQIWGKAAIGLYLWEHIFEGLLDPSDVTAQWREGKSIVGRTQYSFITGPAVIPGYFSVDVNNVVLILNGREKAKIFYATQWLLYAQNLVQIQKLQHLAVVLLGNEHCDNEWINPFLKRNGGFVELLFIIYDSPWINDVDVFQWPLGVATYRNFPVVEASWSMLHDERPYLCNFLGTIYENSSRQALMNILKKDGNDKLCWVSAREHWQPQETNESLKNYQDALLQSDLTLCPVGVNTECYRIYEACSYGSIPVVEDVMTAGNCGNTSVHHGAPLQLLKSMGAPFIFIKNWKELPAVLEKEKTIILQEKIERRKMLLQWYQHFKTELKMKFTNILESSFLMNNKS
UniProt Q8N2Y8: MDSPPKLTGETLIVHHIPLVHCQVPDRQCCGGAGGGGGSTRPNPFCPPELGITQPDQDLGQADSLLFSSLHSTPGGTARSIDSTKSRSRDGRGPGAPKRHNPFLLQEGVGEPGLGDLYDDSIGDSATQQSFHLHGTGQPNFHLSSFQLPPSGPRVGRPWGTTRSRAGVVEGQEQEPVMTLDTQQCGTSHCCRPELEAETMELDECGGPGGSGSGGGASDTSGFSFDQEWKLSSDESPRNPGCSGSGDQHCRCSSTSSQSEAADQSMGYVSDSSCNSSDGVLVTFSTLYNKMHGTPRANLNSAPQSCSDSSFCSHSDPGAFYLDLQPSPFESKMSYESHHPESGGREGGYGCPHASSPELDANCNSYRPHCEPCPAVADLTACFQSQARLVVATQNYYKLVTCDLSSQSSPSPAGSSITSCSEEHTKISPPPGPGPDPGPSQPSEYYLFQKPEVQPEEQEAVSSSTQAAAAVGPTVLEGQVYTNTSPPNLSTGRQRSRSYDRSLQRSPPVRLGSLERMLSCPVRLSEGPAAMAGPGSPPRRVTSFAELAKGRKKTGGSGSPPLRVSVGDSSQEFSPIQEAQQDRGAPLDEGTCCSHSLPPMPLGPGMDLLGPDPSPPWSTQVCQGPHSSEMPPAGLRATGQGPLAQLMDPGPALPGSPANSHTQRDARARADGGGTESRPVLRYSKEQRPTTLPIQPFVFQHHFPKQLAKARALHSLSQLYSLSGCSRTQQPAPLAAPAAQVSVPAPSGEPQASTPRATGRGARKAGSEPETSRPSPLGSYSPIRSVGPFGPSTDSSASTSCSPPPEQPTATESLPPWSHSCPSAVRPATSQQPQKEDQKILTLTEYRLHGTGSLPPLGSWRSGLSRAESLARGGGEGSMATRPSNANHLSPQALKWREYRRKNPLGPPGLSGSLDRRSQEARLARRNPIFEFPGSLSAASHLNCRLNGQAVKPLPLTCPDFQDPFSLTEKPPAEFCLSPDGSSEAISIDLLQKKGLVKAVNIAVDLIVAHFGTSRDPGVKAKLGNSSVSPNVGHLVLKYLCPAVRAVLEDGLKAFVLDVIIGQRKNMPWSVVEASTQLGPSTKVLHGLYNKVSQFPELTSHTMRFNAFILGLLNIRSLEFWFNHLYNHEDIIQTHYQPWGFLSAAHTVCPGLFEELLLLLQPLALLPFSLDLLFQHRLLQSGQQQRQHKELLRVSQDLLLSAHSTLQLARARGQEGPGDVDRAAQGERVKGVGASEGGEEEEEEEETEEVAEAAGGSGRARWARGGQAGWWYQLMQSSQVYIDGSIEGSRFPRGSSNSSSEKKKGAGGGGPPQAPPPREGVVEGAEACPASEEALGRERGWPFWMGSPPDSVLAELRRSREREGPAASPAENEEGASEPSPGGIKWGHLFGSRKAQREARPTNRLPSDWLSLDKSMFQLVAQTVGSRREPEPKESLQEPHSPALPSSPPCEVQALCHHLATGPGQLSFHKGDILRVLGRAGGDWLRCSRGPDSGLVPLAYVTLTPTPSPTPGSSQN
UniProt Q96EU6: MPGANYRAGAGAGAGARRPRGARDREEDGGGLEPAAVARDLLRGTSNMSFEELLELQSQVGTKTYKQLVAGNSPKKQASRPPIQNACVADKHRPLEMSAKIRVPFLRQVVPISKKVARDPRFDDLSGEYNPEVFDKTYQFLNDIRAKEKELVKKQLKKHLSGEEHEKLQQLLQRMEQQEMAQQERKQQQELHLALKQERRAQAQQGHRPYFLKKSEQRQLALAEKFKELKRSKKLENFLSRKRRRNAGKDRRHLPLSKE
UniProt Q86SG5: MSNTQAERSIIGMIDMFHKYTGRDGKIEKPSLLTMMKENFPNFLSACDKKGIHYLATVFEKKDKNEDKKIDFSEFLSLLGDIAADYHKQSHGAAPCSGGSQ

Tests used:
Assay in all cases: log2 fold change, soluble protein after heating vs DMSO (PISA); higher = thermal stabilisation; K562 lysate, 10 uM; active = over 0.2 and 3.5 SD of the protein, either way, in both replicates (recomputed)
lapatinib = compound: CS(=O)(=O)CCNCc1ccc(-c2ccc3ncnc(Nc4ccc(OCc5cccc(F)c5)c(Cl)c4)c3c2)o1 [lapatinib]
How it was run: (§1)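 Log-two fold change in thermal stability relative to solvent controls is reported from duplicates. For each sample, crude K562 extract from dounce-homogenised pellets in PBS pH 7.4 with 1 mM MgCl2, at 1 mg/mL protein, was treated with 10 μM compound for 30 min. Aliquots heated for 3 min across 48°C-58°C were pooled, brought to 0.5% NP-40 at 4°C and cleared at 21,000xg for 90 min. The supernatant was quantified by TMTpro 16plex LC-MS/MS with channel sums equalised.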

pictilisib = compound: CS(=O)(=O)N1CCN(Cc2cc3nc(-c4cccc5[nH]ncc45)nc(N4CCOCC4)c3s2)CC1 [pictilisib]
How it was run: as §1

[1] = compound: C[C@H](C1=CC=C(C=C1)C(=O)NC2=C3C=CNC3=NC=C2)N
How it was run: as §1

duvelisib = compound: C[C@H](Nc1ncnc2nc[nH]c12)c1cc2cccc(Cl)c2c(=O)n1-c1ccccc1 [duvelisib]
How it was run: as §1

gandotinib = compound: Cc1cc(Nc2cc(CN3CCOCC3)c3nc(C)c(Cc4ccc(Cl)cc4F)n3n2)n[nH]1 [gandotinib]
How it was run: as §1

tozasertib = compound: Cc1cc(Nc2cc(N3CCN(C)CC3)nc(Sc3ccc(NC(=O)C4CC4)cc3)n2)n[nH]1 [tozasertib]
How it was run: as §1

bafetinib = compound: Cc1ccc(NC(=O)c2ccc(CN3CC[C@H](N(C)C)C3)c(C(F)(F)F)c2)cc1Nc1nccc(-c2cncnc2)n1 [bafetinib]
How it was run: as §1

[2] = compound: Cc1cccc(CC(=O)N2CCc3c2ccc(-c2cn(C)c4ncnc(N)c24)c3F)n1
How it was run: as §1

nilotinib = compound: Cc1cn(-c2cc(NC(=O)c3ccc(C)c(Nc4nccc(-c5cccnc5)n4)c3)cc(C(F)(F)F)c2)cn1 [nilotinib]
How it was run: as §1

[3] = compound: Cc1nc(Nc2n[nH]c3c2CN(C(=O)N[C@H](CN(C)C)c2ccccc2)C3(C)C)c2sccc2n1
How it was run: as §1

dasatinib = compound: Cc1nc(Nc2ncc(C(=O)Nc3c(C)cccc3Cl)s2)cc(N2CCN(CCO)CC2)n1 [dasatinib]
How it was run: as §1

[4] = compound: Cc1ncc(-c2ccnc(Nc3ccc(S(C)(=O)=O)cc3)n2)n1C(C)C
How it was run: as §1

[5] = compound: Cn1cc(-c2ccc3c(c2)CCN3C(=O)Cc2cccc(C(F)(F)F)c2)c2c(N)ncnc21
How it was run: as §1

tipifarnib = compound: Cn1cncc1[C@@](N)(c1ccc(Cl)cc1)c1ccc2c(c1)c(-c1cccc(Cl)c1)cc(=O)n2C [tipifarnib]
How it was run: as §1

[6] = compound: NC(=O)c1cnc(N[C@@H]2CCCC[C@@H]2N)nc1Nc1cccc(-n2nccn2)c1
How it was run: as §1

[7] = compound: NC1(c2ccc(-c3nc4ccn5c(=O)[nH]nc5c4cc3-c3ccccc3)cc2)CCC1
How it was run: as §1

crizotinib = compound: C[C@@H](Oc1cc(-c2cnn(C3CCNCC3)c2)cnc1N)c1c(Cl)ccc(F)c1Cl [crizotinib]
How it was run: as §1

doramapimod = compound: Cc1ccc(-n2nc(C(C)(C)C)cc2NC(=O)Nc2ccc(OCCN3CCOCC3)c3ccccc23)cc1 [doramapimod]
How it was run: as §1

quisinostat = compound: Cn1cc(CNCC2CCN(c3ncc(C(=O)NO)cn3)CC2)c2ccccc21 [quisinostat]
How it was run: as §1

[8] = compound: NC(=O)Nc1cc(-c2cccc(F)c2)sc1C(=O)N[C@H]1CCCNC1
How it was run: as §1

Measured: log2 fold change

RTTN (UniProt Q86VV8)
inactive: lapatinib 0.306 | pictilisib -0.034 | [1] -0.053 | duvelisib 0.067 | gandotinib -0.289 | tozasertib -0.07 | bafetinib -0.032 | [2] 0.203 | nilotinib -0.102 | [3] 0.14 | dasatinib -0.086 | [4] -0.003 | [5] -0.161 | tipifarnib -0.069 | [6] -0.282 | [7] 0.216

S100A16 (UniProt Q96FQ6)
inactive: lapatinib 0.184 | pictilisib 0.32 | crizotinib -0.038 | [1] 0.433 | gandotinib 0.763 | doramapimod -0.138 | bafetinib 0.069 | [2] -0.162 | nilotinib 0.148 | [3] 0.05 | [4] -0.154 | quisinostat 0 | tipifarnib -0.514 | [8] 0.136 | [6] 0.219

RTN3 (UniProt O95197)
inactive: lapatinib -0.024 | pictilisib 0.007 | crizotinib 0.012 | [1] -0.183 | duvelisib 0.001 | gandotinib 0.062 | tozasertib 0.016 | doramapimod -0.024 | bafetinib -0.038 | [2] 0.04 | nilotinib 0.033 | [3] -0.012 | dasatinib -0.017 | [4] -0.001 | [5] -0.007 | quisinostat 0.014 | tipifarnib -0.026 | [8] 0.033 | [6] -0.007 | [7] 0.007

RRM1 (UniProt P23921)
inactive: lapatinib 0.003 | pictilisib 0.01 | crizotinib -0.025 | [1] -0.004 | duvelisib -0.052 | gandotinib -0.028 | tozasertib -0.036 | doramapimod -0.017 | bafetinib -0.018 | [2] 0.001 | nilotinib -0.003 | [3] 0.008 | dasatinib -0.026 | [4] 0.001 | [5] 0.016 | quisinostat -0.018 | tipifarnib 0.007 | [8] 0.016 | [6] -0.002 | [7] -0.038

RPTOR (UniProt Q8N122)
inactive: lapatinib -0.001 | pictilisib -0.024 | crizotinib -0.056 | [1] -0.044 | duvelisib -0.024 | gandotinib -0.097 | tozasertib 0.019 | doramapimod 0.025 | bafetinib -0.057 | [2] 0.009 | nilotinib -0.005 | [3] -0.035 | dasatinib -0.041 | [4] -0.016 | [5] 0.011 | quisinostat -0.057 | tipifarnib 0.014 | [8] 0.047 | [6] 0.006 | [7] -0.041

RPS7, A0A2R8Y623
inactive: lapatinib 0.272 | pictilisib 0.373 | duvelisib -0.209 | tozasertib 0.235 | bafetinib 0.409 | dasatinib 0.077 | [5] -0.231 | [6] 0.33 | [7] 0.061

RPL38 (UniProt P63173)
inactive: lapatinib 0.006 | pictilisib 0.014 | crizotinib -0.006 | [1] 0.042 | duvelisib -0.02 | gandotinib -0.058 | tozasertib -0.011 | doramapimod -0.092 | bafetinib 0 | [2] -0.017 | nilotinib -0.007 | [3] -0.053 | dasatinib -0.003 | [4] -0.004 | [5] 0.036 | quisinostat -0.007 | tipifarnib 0.005 | [8] 0.012 | [6] -0.001 | [7] 0.037

2 entries picked at random from those above, as already listed:
RPTOR (UniProt Q8N122)
inactive: lapatinib -0.001 | pictilisib -0.024 | crizotinib -0.056 | [1] -0.044 | duvelisib -0.024 | gandotinib -0.097 | tozasertib 0.019 | doramapimod 0.025 | bafetinib -0.057 | [2] 0.009 | nilotinib -0.005 | [3] -0.035 | dasatinib -0.041 | [4] -0.016 | [5] 0.011 | quisinostat -0.057 | tipifarnib 0.014 | [8] 0.047 | [6] 0.006 | [7] -0.041

RPS7, A0A2R8Y623
inactive: lapatinib 0.272 | pictilisib 0.373 | duvelisib -0.209 | tozasertib 0.235 | bafetinib 0.409 | dasatinib 0.077 | [5] -0.231 | [6] 0.33 | [7] 0.061

Next part.

RRP7A (UniProt Q9Y3A4)
inactive: lapatinib -0.104 | pictilisib -0.058 | crizotinib -0.015 | [1] 0.001 | duvelisib 0.077 | gandotinib 0.067 | tozasertib -0.066 | doramapimod -0.052 | bafetinib 0.032 | [2] 0.046 | dasatinib -0.094 | [5] -0.054 | quisinostat 0.064 | [8] 0.089 | [6] -0.054 | [7] 0.007

RSAD1 (UniProt Q9HA92)
inactive: lapatinib -0.161 | pictilisib -0.112 | crizotinib -0.137 | [1] -0.388 | duvelisib -0.08 | gandotinib 0.484 | tozasertib -0.207 | doramapimod 0.03 | bafetinib -0.118 | [2] 0.221 | dasatinib 0.203 | [5] -0.187 | quisinostat 0.074 | [8] -0.071 | [6] 0.076 | [7] -0.146

RPP14 (UniProt O95059)
inactive: lapatinib 0.003 | pictilisib -0.022 | crizotinib -0.044 | [1] 0.027 | gandotinib 0.02 | tozasertib 0.012 | doramapimod 0.093 | bafetinib -0.035 | [2] -0.05 | nilotinib 0.061 | [3] 0.046 | [4] 0.045 | quisinostat -0.113 | tipifarnib -0.104 | [8] 0.087 | [6] 0.01 | [7] -0.102

RPP30 (UniProt Q5VU11)
inactive: tozasertib 0.147

RSC1A1 (UniProt Q92681)
inactive: pictilisib 0.007 | crizotinib 0.119 | duvelisib 0.234 | doramapimod -0.208 | bafetinib -0.11 | nilotinib 0.077 | [3] 0.096 | dasatinib -0.257 | [4] 0.022 | [5] 0 | quisinostat -0.202 | tipifarnib 0.026 | [8] 0.046

RPS15, A0A0B4J2B4
inactive: lapatinib -0.06 | nilotinib -0.228 | [3] 0.078 | [4] 0.098 | tipifarnib 0.124 | [6] -0.187

RTL10 (UniProt Q7L3V2)
inactive: pictilisib -0.03 | crizotinib -0.028 | [1] 0 | duvelisib -0.004 | gandotinib -0.107 | tozasertib -0.015 | doramapimod -0.023 | bafetinib 0.042 | [2] 0.074 | nilotinib -0.003 | [3] -0.216 | dasatinib -0.027 | [4] 0.038 | [5] -0.022 | quisinostat -0.056 | tipifarnib 0.026 | [8] 0.065 | [7] 0.024

RPS19BP1 (UniProt Q86WX3)
inactive: lapatinib 0.154 | crizotinib -0.172 | tozasertib 0.038 | doramapimod 0.182 | quisinostat -0.147 | [8] -0.042 | [6] 0.038

RXYLT1 (UniProt Q9Y2B1)
inactive: lapatinib -0.028 | duvelisib -0.146 | nilotinib 0.126 | [3] 0.03 | dasatinib -0.128 | [4] 0.031 | [5] 0.039 | tipifarnib -0.167 | [6] 0.18 | [7] -0.116

RUSC2 (UniProt Q8N2Y8)
inactive: pictilisib -0.026 | [1] 0.194 | duvelisib 0.04 | gandotinib -0.11 | bafetinib -0.064 | [2] -0.042 | nilotinib -0.131 | [3] -0.076 | dasatinib -0.063 | [4] 0.161 | [5] 0.055 | tipifarnib 0.041 | [7] -0.019

RRP36 (UniProt Q96EU6)
inactive: lapatinib -0.013 | crizotinib -0.013 | duvelisib -0.053 | tozasertib -0.025 | doramapimod 0.22 | dasatinib 0.06 | [5] -0.01 | quisinostat -0.068 | [8] -0.112 | [6] 0.106 | [7] -0.046

S100A7A (UniProt Q86SG5)
inactive: crizotinib -0.034 | doramapimod 0.02 | quisinostat 0.322 | [8] -0.538 | [7] 0.13
